Test results published in paper doi:10.1101/2021.02.21.431301.
These are yes or no findings as the source states them, for the method shown. In cells and extracts the contact can be indirect. Where a sequence is shown, tags or fusion partners need not be part of it.

How the values were obtained:
Assay in all cases: co-IP
[1] = target: GFP-MdFLC, full length (N. benthamiana) (apple (Malus x domestica))
[2] = target: GFP-MdDAMb, full length (N. benthamiana) (apple (Malus x domestica))
[3] = target: GFP-MdDAM1, full length (N. benthamiana) (apple (Malus x domestica))

binding [1]: no binding
binding [2]: no binding
binding [3]: no binding
B1: AtHB33-MyC (5xMyC-AtHB33) (protein, UniProt Q9FRL5 1-309)
chain: MDMRSHEMIERRREDNGNNNGGVVISNIISTNIDDNCNGNNNNTRVSCNSQTLDHHQSKSPSSFSISAAAKPTVRYRECLKNHAASVGGSVHDGCGEFMPSGEEGTIEALRCAACDCHRNFHRKEMDGVGSSDLISHHRHHHYHHNQYGGGGGRRPPPPNMMLNPLMLPPPPNYQPIHHHKYGMSPPGGGGMVTPMSVAYGGGGGGAESSSEDLNLYGQSSGEGAGAAAGQMAFSMSSSKKRFRTKFTTDQKERMMDFAEKLGWRMNKQDEEELKRFCGEIGVKRQVFKVWMHNNKNNAKKPPTPTTTL
